Drawing on paper doi:10.1101/2022.04.05.486672, this text covers binding for one substance.

The assay has as its target T1, PEP7-(His)6, synthetic C-terminally HIS-tagged PEP7 (Arabidopsis) (UniProt P0C1T5).
T1 sequence (peptide): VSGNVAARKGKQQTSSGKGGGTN
The assay is described as follows: pull-down.

Results are given in words; binding and its absence hold for the method and conditions named. In cells and extracts the contact can be indirect. A result given as binding can be weak or reduced; the word gives no strength. Where a sequence is shown, tags or fusion partners need not be part of it.

With “native full-length SIRK1 in root microsomal membrane preparations (Arabidopsis (endogenous in roots)) (receptor)”, the binding result was “binds”.
